From publication PMC9701752
No constants are given. Whether binding was seen depends on the method and setting. Some entries that bind do so weakly or less than the wild type.

Target: FLT3 transmembrane domain construct for the AraTM assay (five extracellular residues, putative TMD, 20 cytoplasmic juxtamembrane residues)
Assay: DN-AraTM transcriptional reporter assay; TMD fusions to AraC (FLT3) and to inactive AraC* (competitor) co-expressed with the reporter pAraGFPCDF in AraC-deficient E. coli SB1676, 30 °C; GFP fluorescence at 530 nm over absorbance at 580 nm, normalised to the negative control and to expression (anti-MBP blot); a fall of GFP signal means association of the competitor with FLT3-AraC

binding: binds
Binder: QDNISFYATIGVCLLFIVVLTLLICHKYKKQFRYESQLQMVQVTG (domain or fragment)
